These are yes or no findings as the source states them, for the method shown.
Molecular target: T1, scavenger receptor AI (human (endogenous in THP-1)) (UniProt P21757)
T1 sequence: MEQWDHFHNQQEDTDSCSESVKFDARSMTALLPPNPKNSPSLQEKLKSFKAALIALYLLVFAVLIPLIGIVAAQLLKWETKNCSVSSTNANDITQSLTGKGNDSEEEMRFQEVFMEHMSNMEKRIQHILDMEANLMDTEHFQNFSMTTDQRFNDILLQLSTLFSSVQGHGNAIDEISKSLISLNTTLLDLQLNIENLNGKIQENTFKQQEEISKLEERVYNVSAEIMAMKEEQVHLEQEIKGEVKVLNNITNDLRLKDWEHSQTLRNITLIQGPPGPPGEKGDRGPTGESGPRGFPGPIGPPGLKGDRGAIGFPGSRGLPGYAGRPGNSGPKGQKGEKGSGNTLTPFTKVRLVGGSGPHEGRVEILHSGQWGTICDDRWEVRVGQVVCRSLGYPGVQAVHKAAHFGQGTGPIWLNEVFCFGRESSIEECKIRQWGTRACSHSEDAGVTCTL
Assay: ELISA

By UniProt entry, the sequences of proteins in these tests, tags left out. Residues count along the entry.
UniProt P04792, residues 93-205: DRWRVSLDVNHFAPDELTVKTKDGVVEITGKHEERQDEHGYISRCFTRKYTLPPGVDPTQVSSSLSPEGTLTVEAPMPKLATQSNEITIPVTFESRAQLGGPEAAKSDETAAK

C-terminal, biologically inactive (rC1) fragment of HSP27 (AA93-205) (from UniProt P04792 93-205) (domain or fragment)
binding: no binding (tested: 1 μg/ml)

Source: publication doi:10.1101/2020.05.31.126581
